pIC50: −log10 of the molar value. Some of these results come from one statement about several compounds together. For at least one compound, name, drawing or mass did not settle the structure.
Tests used:
MBP-Cdc25C protein = target: T1, MBP-Cdc25C protein (Homo sapiens, UniProt P30307); experiment: Measurement of the phosphatase activity of the purified Cdc25C recombinant enzyme (OMFP dephosphorylation, fluorescence); assay type: biochemical; settings: OMFP 500 μM, 4 hours at 30° C.; read-out: CI50 on the phosphatase activity of the purified recombinant enzyme Cdc25-C
T1 construct: made in house
T1 sequence (P30307 1-473): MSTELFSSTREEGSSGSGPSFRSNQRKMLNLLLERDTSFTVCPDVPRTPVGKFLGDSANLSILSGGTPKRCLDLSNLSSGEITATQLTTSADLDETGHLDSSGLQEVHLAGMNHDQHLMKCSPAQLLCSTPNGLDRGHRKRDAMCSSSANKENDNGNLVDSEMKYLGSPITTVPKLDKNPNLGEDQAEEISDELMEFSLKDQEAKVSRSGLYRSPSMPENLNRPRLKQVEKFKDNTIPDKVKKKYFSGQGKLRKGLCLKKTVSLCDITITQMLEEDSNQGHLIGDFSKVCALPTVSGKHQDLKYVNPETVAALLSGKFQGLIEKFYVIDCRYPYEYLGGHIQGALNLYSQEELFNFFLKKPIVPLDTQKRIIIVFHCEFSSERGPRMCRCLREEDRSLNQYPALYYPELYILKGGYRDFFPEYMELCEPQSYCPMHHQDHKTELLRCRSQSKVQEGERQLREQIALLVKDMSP

[1] = tested on: Mia-PaCa2 (human pancreas cancer cells); experiment: Antiproliferative activity, WST1 colorimetric test, Mia-PaCa2; assay type: cell-based; settings: 96 hours treatment, up to 10 μM; read-out: CI50 on the cell proliferation of the lines Mia-Paca2
Description: (§1) iii) Characterization of the Antiproliferative Activity:
(§2) By way of example, the effect of a treatment on two human cell lines Mia-Paca2 and DU145 by the compounds of the examples described previously will be studied. The cell lines DU145 (human prostate cancer cells) and Mia-PaCa2 (human pancreas cancer cells) were acquired from the American Tissue Culture Collection (Rockville, Md., USA). The cells placed in 80 μl of Dulbecco's Modified Eagle's medium (Gibco-Brl, Cergy-Pontoise, France) completed with 10% foetal calf serum inactivated by heating (Gibco-Brl, Cergy-Pontoise, France), 50,000 units/l of penicillin and 50 mg/l of streptomycin (Gibco-Brl, 10378-057, Cergy-Pontoise, France), and 2 mM of glutamine (Gibco-Brl, Cergy-Pontoise, France) were seeded on a 96-well plate on day 0. The cells were treated on day 1 for 96 hours with increasing concentrations of each of the compounds to be tested up to 10 μM. At the end of this period, quantification of cell proliferation is evaluated by a colorimetric test based on the cleavage of the tetrazolium salt WST1 by the mitochondrial dehydrogenases in viable cells leading to the formation of formazan (Boehringer Mannheim, Meylan, France). These tests are carried out in duplicate with 8 determinations per concentration tested. For each compound to be tested, the values included in the linear part of the sigmoid were retained for a linear regression analysis and used to estimate the inhibitory concentration IC50. The products are solubilized in dimethylsulphoxide (DMSO) at 10^−2 M and used in culture with 0.1% DMSO final.

[2] = tested on: DU145 (human prostate cancer cells); experiment: Antiproliferative activity, WST1 colorimetric test, DU145; assay type: cell-based; settings: 96 hours treatment, up to 10 μM; read-out: Cl50 on the cell proliferation of the lines DU-145
Description: as §1, §2

| Compound | pIC50 (MBP-Cdc25C protein) | pIC50 [1] | pIC50 [2] |
| --- | --- | --- | --- |
| 5-[(1-ethylhexyl)amino]-2-phenyl-1,3-benzoxazole-4,7-dione or 6-[(1-ethylhexyl)amino]-2-phenyl-1,3-benzoxazole-4,7-dione [Example 59] | ≥ 5.00 |  |  |
| 5-[[2-(dimethylamino)ethyl](ethyl)amino]-2-methyl-1,3-benzothiazole-4,7-dione [Example 114] | ≥ 5.00 | ≥ 5.00 | ≥ 5.00 |
| 5-[[2-(dimethylamino)ethyl](methyl)amino]-2-methyl-1,3-benzothiazole-4,7-dione [Example 115] | ≥ 5.00 | ≥ 5.00 | ≥ 5.00 |
| 5-{[3-(dimethylamino)propyl]amino}-2-ethyl-1,3-benzoxazole-4,7-dione or 6-{([3-(dimethylamino)propyl]amino}-2-ethyl-1,3-benzoxazole-4,7-dione [Example 43] | ≥ 5.00 | ≥ 5.00 | ≥ 5.00 |
| 5-{[4-(dimethylamino)butyl]amino}-2-ethyl-1,3-benzoxazole-4,7-dione or 6-{[4-(dimethylamino)butyl]amino}-2-ethyl-1,3-benzoxazole-4,7-dione [Example 45] | ≥ 5.00 | ≥ 5.00 | ≥ 5.00 |
| 5-{[5-dimethylamino)pentyl]amino}-2-ethyl-1,3-benzoxazole-4,7-dione or 6-{[5-(dimethylamino)pentyl]amino}-2-ethyl-1,3-benzoxazole-4,7-dione [Example 47] | ≥ 5.00 | ≥ 5.00 | ≥ 5.00 |
| 6-chloro-5-{[2-(dimethylamino)ethyl]amino}-2-ethyl-1,3-benzoxazole-4,7-dione or 5-chloro-6-{[2-(dimethylamino)ethyl]amino}-2-ethyl-1,3-benzoxazole-4,7-dione [Example 53] | ≥ 5.00 | ≥ 5.00 | ≥ 5.00 |
| CCc1nc2c(o1)C(=O)C=C(Nc1ccccc1)C2=O [Example 15, 5-anilino-2-ethyl-4,7-dihydrobenzo[d][1,3]oxazole-4,7-dione] | ≥ 5.00 |  |  |
| CCc1nc2c(o1)C(=O)C(Cl)=C(Nc1ccccc1)C2=O [Example 16, 5-anilino-6-chloro-2-ethyl-1,3-benzoxazole-4,7-dione] | ≥ 5.00 |  |  |
| CCc1nc2c(o1)C(=O)C=C(Nc1ccc(F)cc1)C2=O [Example 17, 2-ethyl-5-[(4-fluorophenyl)amino]-1,3-benzoxazole-4,7-dione] | ≥ 5.00 |  |  |
| Cc1nc2c(s1)C(=O)C=C(NCCCN)C2=O [Example 33, 5-[(3-aminopropyl)amino]-2-methyl-1,3-benzothiazole-4,7-dione] | ≥ 5.00 |  |  |
| CCc1nc2c(o1)C(=O)C(Br)=C(NCCN(C)C)C2=O [Example 54, 6-bromo-5-{[2-(dimethylamino)ethyl]amino}-2-ethyl-1,3-benzoxazole-4,7-dione or 5-bromo-6-{[2-(dimethylamino)ethyl]amino}-2-ethyl-1,3-benzoxazole-4,7-dione] | ≥ 5.00 |  |  |
| CN(C)CCNC1=CC(=O)c2oc(C3CC3)nc2C1=O [Example 56, 2-cyclopropyl-5-{[2-(dimethylamino)ethyl]amino}-1,3-benzoxazole-4,7-dione or 2-cyclopropyl-5-{[2-(dimethylamino)ethyl]amino}-1,3-benzoxazole-4,7-dione] | ≥ 5.00 | ≥ 5.00 | ≥ 5.00 |
| Mix of 2-(2,5-dichlorothien-3-yl)-5-[(2-pyrrolidin-1-ylethyl)amino]-1,3-benzothiazole-4,7-dione and 2-(2,5-dichlorothien-3-yl)-6-[(2-pyrrolidin-1-ylethyl)amino]-1,3-benzothiazole-4,7-dione [Example 105] |  | ≥ 5.00 | ≥ 5.00 |
| Mixture of 2-(2,3-difluorophenyl)-5-[(2-pyrrolidin-1-ylethyl)amino]-1,3-benzoxazole-4,7-dione and 2-(2,3-difluorophenyl)-6-[(2-pyrrolidin-1-ylethyl)amino]-1,3-benzoxazole-4,7-dione [Example 85] | ≥ 5.00 | ≥ 5.00 | ≥ 5.00 |
| Mixture of 2-(2,3-difluorophenyl)-5-{[2-(dimethylamino)ethyl]amino}-1,3-benzoxazole-4,7-dione and 2-(2,3-difluorophenyl)-6-{[2-(dimethylamino)ethyl]amino}-1,3-benzoxazole 4,7-dione [Example 84] | ≥ 5.00 | ≥ 5.00 | ≥ 5.00 |
| Mixture of 2-(2,3-difluorophenyl)-5-{[3-(dimethylamino)propyl]amino}-1,3-benzoxazole-4,7-dione and 2-(2,3-difluorophenyl)-6-{[3-(dimethylamino)propyl]amino}1,3-benzoxazole-4,7-dione [Example 86] | ≥ 5.00 | ≥ 5.00 | ≥ 5.00 |
| Mixture of 2-(2,5-dichlorothien-3-yl)-5-{[2-(dimethylamino)ethyl]amino}-1,3-benzothiazole-4,7-dione and 2-(2,5-dichlorothien-3-yl)-6-{[2-(dimethylamino)ethyl]amino}-1,3-benzothiazole-4,7-dione [Example 104] | ≥ 5.00 | ≥ 5.00 | ≥ 5.00 |
| Mixture of 2-(2,5-difluorophenyl)-5-[(2-pyrrolidin-1-ylethyl)amino]-1,3-benzoxazole-4,7-dione and 2-(2,5-difluorophenyl)-6-[(2-pyrrolidin-1-ylethyl)amino]-1,3-benzoxazole-4,7-dione [Example 82] | ≥ 5.00 | ≥ 5.00 | ≥ 5.00 |
| Mixture of 2-(2,5-difluorophenyl)-5-{[2-(dimethylamino)ethyl]amino}-1,3-benzoxazole-4,7-dione and 2-(2,5-difluorophenyl)-6-{[2-(dimethylamino)ethyl]amino}-1,3-benzoxazole-4,7-dione [Example 83] | ≥ 5.00 | ≥ 5.00 | ≥ 5.00 |
| Mixture of 2-(2,6-difluorophenyl)-5-[(2-pyrrolidin-1-ylethyl)amino]-1,3-benzothiazole-4,7-dione and 2-(2,6-difluorophenyl)-6-[(2-pyrrolidin-1-ylethyl)amino]-1,3-benzothiazole-4,7-dione [Example 112] | ≥ 5.00 | ≥ 5.00 | ≥ 5.00 |
| Mixture of 2-(2,6-difluorophenyl)-5-[(2-pyrrolidin-1-ylethyl)amino]-1,3-benzoxazole-4,7-dione and 2-(2,6-difluorophenyl)-6-[(2-pyrrolidin-1-ylethyl)amino]-1,3-benzoxazole-4,7-dione [Example 60] | ≥ 5.00 | ≥ 5.00 | ≥ 5.00 |
| Mixture of 2-(2,6-difluorophenyl)-5-{[2-(dimethylamino)ethyl]amino}-1,3-benzothiazole-4,7-dione and 2-(2,6-difluorophenyl)-6-{[2-(dimethylamino)ethyl]amino}-1,3-benzothiazole-4,7-dione [Example 113] | ≥ 5.00 | ≥ 5.00 | ≥ 5.00 |
| Mixture of 2-(2-bromophenyl)-5-[(2-pyrrolidin-1-ylethyl)amino]-1,3-benzoxazole-4,7-dione and 2-(2-bromophenyl)-6-[(2-pyrrolidin-1-ylethyl)amino]-1,3-benzoxazole-4,7-dione [Example 69] | ≥ 5.00 | ≥ 5.00 | ≥ 5.00 |
| Mixture of 2-(2-bromophenyl)-5-{[2-dimethylamino)ethyl]amino}-1,3-benzoxazole-4,7-dione and 2-(2-bromophenyl)-6-{[2-(dimethylamino)ethyl]amino}-1,3-benzoxazole-4,7-dione [Example 68] | ≥ 5.00 | ≥ 5.00 | ≥ 5.00 |
| Mixture of 2-(2-furyl)-5-[(2-pyrrolidin-1-ylethyl)amino]-1,3-benzothiazole-4,7-dione and 2-(2-furyl)-6-[(2 pyrrolidin-1-ylethyl)amino]-1,3-benzothiazole-4,7-dione [Example 106] |  | ≥ 5.00 | ≥ 5.00 |
